Results published in paper PMC7571425 (Antiviral Research, 2020).

System: hPSC-CMs
Experiment: Electrophysiological characterization of hPSC-CMs
Format: cell-based, human
Conditions: 1 μM

COC(=O)C1=C(C)NC(C)=C(C(=O)OC)C1c1ccccc1[N+](=O)[O-] [nifedipine, Nifedipine]
action potential duration (APD) and repolarization: shortened
